PubChem BioAssay AID602196 – INSERM – 2012
Assay: 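Knock-downs that protect lung cancer cells from cisplatin or sensitise them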. System: human A549 lung cancer cells. Reagents: siRNA pair against human genes. Duration: 48 h transfection before cisplatin; time from cisplatin to read-out not stated. Conditions: cisplatin at a dose killing half of control-siRNA cells; exact dose and duration not given. Measurement: 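Shift in cisplatin death relative to control siRNA, from -50 (all cells die) to +50 (no cells die); siRNAs harmful on their own scored 0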. Scale: two-siRNA summed score (-2 to +2): higher = both siRNAs protect from cisplatin killing; -2 means both sensitise. Rule for the call: 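siRNAs harmful alone (LDH or WST-1) get 0; others get +1 for less and -1 for more cisplatin killing; genes are active when the two siRNAs give the same sign, summing to ±2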. Meaning of the calls: active = both siRNAs shift cisplatin killing the same way; inactive = no consistent shift, or siRNA harmful alone.
Shown is a random part of about 23,000 deposited reagents. Over the whole deposit, 455 (2%) got an active call. 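Active includes both protection and sensitisation; some change values fall well beyond the stated -50 to +50 range.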 Further read-outs or replicates are left out here. Not stated in the record: the amount of reagent.

Gene | two-siRNA summed score (-2 to +2) | call
TMCO4 | 0 | inactive
KRT84 | -1 | inactive
RAB30 | -1 | inactive
LY6H | -1 | inactive
LOC401328 | 0 | inactive
MAP1LC3A | 1 | inactive
RADX | 0 | inactive
FAM107A | 0 | inactive
TCEAL5 | 0 | inactive
CYP26B1 | 0 | inactive
NINJ2 | 0 | inactive
SCIMP | 0 | inactive
DPPA3P2 | 0 | inactive
SATB2 | 0 | inactive
PRCP | 0 | inactive
LOC442047 | 0 | inactive
MMD2 | 0 | inactive
WDR37 | 0 | inactive
CASS4 | 0 | inactive
SH2D3C | 0 | inactive
LOC390595 | 1 | inactive
N4BP3 | 0 | inactive
LOC143678 | 0 | inactive

Targets above whose target name starts with N or n:
Gene | two-siRNA summed score (-2 to +2) | call
NINJ2 | 0 | inactive
N4BP3 | 0 | inactive
